No constants are given. Whether binding was seen depends on the method and setting. Some results given as binding are weak or reduced against the parent protein; the word gives no strength. For part of these data: Sequences can lack the tags named with a protein.
How the values were obtained:
[1] = molecular target: human FAP on transiently transfected HEK293T cells (pMET7 FLAG-hFAP) (human) (UniProt Q12884); experiment: FACS, serial dilution of purified VHH on transfected HEK293T cells
[2] = molecular target: T1, mouse FAP on transiently transfected HEK293T cells (pMET7 FLAG-mFAP) (mouse) (UniProt P97321); experiment: as above
T1 sequence (looked up): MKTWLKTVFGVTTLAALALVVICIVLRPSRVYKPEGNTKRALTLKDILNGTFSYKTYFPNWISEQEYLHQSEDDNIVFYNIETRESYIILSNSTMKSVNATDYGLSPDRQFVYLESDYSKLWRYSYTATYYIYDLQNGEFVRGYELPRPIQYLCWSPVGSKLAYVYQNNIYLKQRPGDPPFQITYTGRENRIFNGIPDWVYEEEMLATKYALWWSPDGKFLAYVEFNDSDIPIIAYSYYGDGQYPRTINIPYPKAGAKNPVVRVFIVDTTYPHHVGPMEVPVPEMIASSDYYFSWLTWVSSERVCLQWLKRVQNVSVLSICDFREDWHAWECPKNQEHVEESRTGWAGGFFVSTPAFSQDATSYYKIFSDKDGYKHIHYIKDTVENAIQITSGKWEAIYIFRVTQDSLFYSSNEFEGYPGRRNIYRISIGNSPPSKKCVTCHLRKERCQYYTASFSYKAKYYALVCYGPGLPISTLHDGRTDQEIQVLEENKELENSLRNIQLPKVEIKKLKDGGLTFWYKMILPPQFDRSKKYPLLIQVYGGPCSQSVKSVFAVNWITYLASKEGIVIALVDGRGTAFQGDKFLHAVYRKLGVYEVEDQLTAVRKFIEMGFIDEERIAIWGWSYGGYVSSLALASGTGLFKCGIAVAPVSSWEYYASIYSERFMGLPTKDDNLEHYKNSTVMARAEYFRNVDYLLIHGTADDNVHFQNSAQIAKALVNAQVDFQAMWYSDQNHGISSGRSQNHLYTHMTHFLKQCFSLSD

By UniProt entry, the sequences of proteins in these tests, tags left out. Where a name states a change or a piece, a line headed by the entry shows the natural chain unless it says otherwise.
UniProt Q12884: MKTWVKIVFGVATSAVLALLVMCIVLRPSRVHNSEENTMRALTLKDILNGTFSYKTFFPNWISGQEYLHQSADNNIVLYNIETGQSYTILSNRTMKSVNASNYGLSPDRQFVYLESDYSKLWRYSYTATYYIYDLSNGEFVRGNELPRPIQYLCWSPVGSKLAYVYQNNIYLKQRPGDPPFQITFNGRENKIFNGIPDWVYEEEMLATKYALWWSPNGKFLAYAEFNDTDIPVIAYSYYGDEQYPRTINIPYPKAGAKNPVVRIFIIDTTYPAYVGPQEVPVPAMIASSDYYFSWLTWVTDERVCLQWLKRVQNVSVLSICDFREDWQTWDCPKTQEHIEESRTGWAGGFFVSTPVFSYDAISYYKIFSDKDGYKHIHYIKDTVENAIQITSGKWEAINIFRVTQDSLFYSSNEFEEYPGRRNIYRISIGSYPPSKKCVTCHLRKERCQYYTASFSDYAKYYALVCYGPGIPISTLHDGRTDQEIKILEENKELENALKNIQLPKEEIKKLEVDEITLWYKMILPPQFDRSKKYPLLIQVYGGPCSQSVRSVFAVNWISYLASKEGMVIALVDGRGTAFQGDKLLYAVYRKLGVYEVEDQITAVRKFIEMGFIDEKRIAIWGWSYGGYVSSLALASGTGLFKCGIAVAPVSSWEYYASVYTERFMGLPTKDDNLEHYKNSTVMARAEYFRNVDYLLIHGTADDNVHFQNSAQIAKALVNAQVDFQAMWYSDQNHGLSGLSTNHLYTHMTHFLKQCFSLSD

[3] = molecular target: recombinant human FAPa extracellular domain (human) (UniProt Q12884); experiment: library panning on coated antigen, positive colonies; members in Table 6

Measured: binding

B1: 3PE94 (VHH)
VHH: QVQLQESGGGLVQPEGSLRLSCAASGSISSINAMAWYRQAPGKRRELVAGIDGGGVTNYPDSVKGRFTISRDNAKNTVYLQMSSLKPEDTAVYYCNLWPPRASPGGRVYWGQGTQVTVSS
binds: all assays above

From patent US20220332844A1 (ORIONIS BIOSCIENCES, published 2022)
